# Laboratory results published in the supplement of paper PMC4635364.
# Structures can show the parent of a compound that is named as a salt. Some of the results follow. Single values are uncertain here, since repeats match poorly.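 Cells: ReNCell VM human fetal ventral-midbrain neural progenitors, differentiated mitogen-free. Blinded raters compared doublecortin-stained (early neurons) or tyrosine hydroxylase-stained (dopaminergic neurons) images with untreated wells, where 0 means no change. After repeats and both raters were averaged, compounds scoring 2 or above became hits for retesting.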
# Key:
# ReNCell VM [1] = assay: neuronal differentiation score (DCX+ cell fraction vs untreated, manual image score) (score (-3 to 3)); higher = more neuronal differentiation; settings: 2 uM, 2 weeks
# ReNCell VM [2] = assay: dopaminergic neuron differentiation score (TH+ cell fraction vs untreated, manual image score) (score (0 to 3)); higher = more TH+ dopaminergic neuron differentiation; settings: 2 uM, 4 weeks, BDNF 10 ng/ml + GDNF 10 ng/ml
smiles,measurement,setting,value
C[N+]1(C)[C@@H]2C[C@@H](OC(=O)[C@H](CO)c3ccccc3)C[C@H]1[C@@H]1O[C@@H]12 [(-)-Scopolamine methyl bromide],neuronal differentiation score,ReNCell VM [1]; library: LOPAC,inactive: 0
same,dopaminergic neuron differentiation score,ReNCell VM [2]; library: LOPAC,inactive: 0
C[C@]1(C(=O)O)CCC[C@]2(C)c3cc(O)ccc3CC[C@@H]12 [Podocarpic acid],neuronal differentiation score,ReNCell VM [1]; library: Phytochemical,inactive: 0
same,dopaminergic neuron differentiation score,ReNCell VM [2]; library: Phytochemical,inactive: 0
NCc1cc(O)no1 [Muscimol hydrobromide],neuronal differentiation score,ReNCell VM [1]; library: LOPAC,inactive: 0
same,dopaminergic neuron differentiation score,ReNCell VM [2]; library: LOPAC,inactive: 0
O=C(CCCN1CCC2(CC1)C(=O)NCN2c1ccccc1)c1ccc(F)cc1,neuronal differentiation score,ReNCell VM [1]; library: Spectrum,inactive: 0
same,dopaminergic neuron differentiation score,ReNCell VM [2]; library: Spectrum,inactive: 0
O=C(O)[C@@H]1CCN1 [L-azetidine-2-carboxylic acid],neuronal differentiation score,ReNCell VM [1]; library: LOPAC,inactive: 0
same,dopaminergic neuron differentiation score,ReNCell VM [2]; library: LOPAC,inactive: 0
c1ccc(CCCCN2CCC(c3ccccc3)CC2)cc1 [4-PPBP maleate],neuronal differentiation score,ReNCell VM [1]; library: Tocriscreen,inactive: 0
same,dopaminergic neuron differentiation score,ReNCell VM [2]; library: Tocriscreen,inactive: 0
N#CCCN [3-Aminopropionitrile fumarate],neuronal differentiation score,ReNCell VM [1]; library: LOPAC,inactive: 1
same,dopaminergic neuron differentiation score,ReNCell VM [2]; library: LOPAC,inactive: 0
CC[C@]12C=CCN3CC[C@]4(C(=C(C(=O)OC)C1)Nc1ccccc14)[C@@H]32 [tabersonine],neuronal differentiation score,ReNCell VM [1]; library: Natural,inactive: 0
same,dopaminergic neuron differentiation score,ReNCell VM [2]; library: Natural,inactive: 0
CC(=O)OCC(=O)[C@H]1CC[C@H]2[C@@H]3CC[C@H]4C[C@H](O)CC[C@]4(C)[C@H]3C(=O)C[C@]12C [Alfadolone acetate],neuronal differentiation score,ReNCell VM [1]; library: Prestwick,inactive: 0
same,dopaminergic neuron differentiation score,ReNCell VM [2]; library: Prestwick,inactive: 0
CC(=O)[O-].CC(=O)[O-].[Cd+2],neuronal differentiation score,ReNCell VM [1]; library: Spectrum,inactive: 0
same,dopaminergic neuron differentiation score,ReNCell VM [2]; library: Spectrum,inactive: 0
CC(=O)OCC1=C(C(=O)[O-])N2C(=O)[C@@H](NC(=O)CCC[C@@H](N)C(=O)[O-])[C@H]2SC1.[Zn+2] [Cephalosporin C zinc salt],neuronal differentiation score,ReNCell VM [1]; library: LOPAC,inactive: 0
same,dopaminergic neuron differentiation score,ReNCell VM [2]; library: LOPAC,inactive: 0
O=C1C=C2C=C[C@@H]3C[C@@]2(O1)[C@H]1CCCCN31,neuronal differentiation score,ReNCell VM [1]; library: Spectrum,inactive: 0
same,dopaminergic neuron differentiation score,ReNCell VM [2]; library: Spectrum,inactive: 0
O=C(O[C@H]1C[C@H]2CC[C@@H](C1)[N+]21CCCC1)C(O)(c1ccccc1)c1ccccc1,neuronal differentiation score,ReNCell VM [1]; library: Spectrum,inactive: 0
same,dopaminergic neuron differentiation score,ReNCell VM [2]; library: Spectrum,inactive: 0
NCC1(CC(=O)O)CCCCC1,neuronal differentiation score,ReNCell VM [1]; library: Spectrum,inactive: 0
same,dopaminergic neuron differentiation score,ReNCell VM [2]; library: Spectrum,inactive: 0
C[C@@H]1O[C@@H](O[C@H]2C[C@@H](O)[C@]3(CO)[C@H]4[C@H](O)C[C@]5(C)[C@@H](C6=CC(=O)OC6)CC[C@]5(O)[C@@H]4CC[C@]3(O)C2)[C@H](O)[C@H](O)[C@H]1O [Strophantine octahydrate],neuronal differentiation score,ReNCell VM [1]; library: Phytochemical,inactive: 0
same,dopaminergic neuron differentiation score,ReNCell VM [2]; library: Phytochemical,inactive: 0
O=C(OC1CCN(CCCl)CC1)C(c1ccccc1)c1ccccc1 [4-Diphenylacetoxy-N-(2-chloroethyl)piperidine hydrochloride],neuronal differentiation score,ReNCell VM [1]; library: LOPAC,inactive: 0
same,dopaminergic neuron differentiation score,ReNCell VM [2]; library: LOPAC,inactive: 0
C[C@@H]1CC[C@@]2(OC1)O[C@H]1[C@@H](O)[C@H]3[C@@H]4CC[C@H]5C[C@@H](O[C@@H]6O[C@H](CO)[C@H](O[C@@H]7O[C@H](CO)[C@@H](O)[C@H](O[C@@H]8OC[C@@H](O)[C@H](O)[C@H]8O)[C@H]7O[C@@H]7O[C@H](CO)[C@H](O)[C@H](O[C@@H]8O[C@H](CO)[C@@H](O)[C@H](O)[C@H]8O)[C@H]7O)[C@H](O)[C@H]6O)[C@H](O)C[C@]5(C)[C@H]4CC[C@]3(C)[C@H]1[C@@H]2C,neuronal differentiation score,ReNCell VM [1]; library: Spectrum,inactive: 0
same,dopaminergic neuron differentiation score,ReNCell VM [2]; library: Spectrum,inactive: 0
C[N+]1(C)CCCC(OC(=O)C(O)(c2ccccc2)c2ccccc2)C1 (configuration not stated),neuronal differentiation score,ReNCell VM [1]; library: Spectrum,inactive: 0
same,dopaminergic neuron differentiation score,ReNCell VM [2]; library: Spectrum,inactive: 0
Cc1ncsc1CCCl [Chlormethiazole hydrochloride],neuronal differentiation score,ReNCell VM [1]; library: Tocriscreen,inactive: 0
same,dopaminergic neuron differentiation score,ReNCell VM [2]; library: Tocriscreen,inactive: 0
Cc1ccc(S(=O)(=O)N[C@@H](CCCCN)C(=O)CCl)cc1 [Na-p-Tosyl-L-lysine chloromethyl ketone hydrochloride],neuronal differentiation score,ReNCell VM [1]; library: LOPAC,inactive: 0
same,dopaminergic neuron differentiation score,ReNCell VM [2]; library: LOPAC,inactive: 1
"NCC(CC(=O)O)c1ccc(Cl)cc1 (racemic) [Baclofen (R,S)]",neuronal differentiation score,ReNCell VM [1]; library: Prestwick,inactive: 0
same,dopaminergic neuron differentiation score,ReNCell VM [2]; library: Prestwick,inactive: 0
O=Cc1cn(Cc2ccc(Cl)cc2)c2ccccc12 [Oncrasin 1],neuronal differentiation score,ReNCell VM [1]; library: Tocriscreen,inactive: 0
same,dopaminergic neuron differentiation score,ReNCell VM [2]; library: Tocriscreen,inactive: 0
C[C@H](N)[C@H](O)c1ccc(O)c(O)c1,neuronal differentiation score,ReNCell VM [1]; library: Spectrum,inactive: 1
same,dopaminergic neuron differentiation score,ReNCell VM [2]; library: Spectrum,inactive: 0
CCCC(C)(COC(N)=O)COC(=O)NC(C)C (configuration not stated),neuronal differentiation score,ReNCell VM [1]; library: Spectrum,inactive: 0
same,dopaminergic neuron differentiation score,ReNCell VM [2]; library: Spectrum,inactive: 0
CC[C@@]1(O)C[C@H](O)c2c(cc3c(c2O)C(=O)c2c(O)ccc(O)c2C3=O)[C@H]1C(=O)OC,neuronal differentiation score,ReNCell VM [1]; library: Spectrum,inactive: 0
same,dopaminergic neuron differentiation score,ReNCell VM [2]; library: Spectrum,inactive: 0
CC(C)[C@@]1(NC(=O)[C@@H]2C[C@@H]3c4cccc5[nH]cc(c45)C[C@H]3N(C)C2)O[C@@]2(O)[C@@H]3CCCN3C(=O)[C@H](Cc3ccccc3)N2C1=O [Dihydroergocristine methanesulfonate],neuronal differentiation score,ReNCell VM [1]; library: LOPAC,inactive: 1
same,dopaminergic neuron differentiation score,ReNCell VM [2]; library: LOPAC,inactive: 0

# Retrieved one by one from above, three records:
smiles,measurement,setting,value
NCc1cc(O)no1 [Muscimol hydrobromide],neuronal differentiation score,ReNCell VM [1]; library: LOPAC,inactive: 0
CC(=O)OCC(=O)[C@H]1CC[C@H]2[C@@H]3CC[C@H]4C[C@H](O)CC[C@]4(C)[C@H]3C(=O)C[C@]12C [Alfadolone acetate],dopaminergic neuron differentiation score,ReNCell VM [2]; library: Prestwick,inactive: 0
C[N+]1(C)CCCC(OC(=O)C(O)(c2ccccc2)c2ccccc2)C1 (configuration not stated),neuronal differentiation score,ReNCell VM [1]; library: Spectrum,inactive: 0
